{
  "sequences": {"note": "Protein sequences, listed by entry. Tags and fused reporters are not part of them.", "UniProt Q8TEB1": "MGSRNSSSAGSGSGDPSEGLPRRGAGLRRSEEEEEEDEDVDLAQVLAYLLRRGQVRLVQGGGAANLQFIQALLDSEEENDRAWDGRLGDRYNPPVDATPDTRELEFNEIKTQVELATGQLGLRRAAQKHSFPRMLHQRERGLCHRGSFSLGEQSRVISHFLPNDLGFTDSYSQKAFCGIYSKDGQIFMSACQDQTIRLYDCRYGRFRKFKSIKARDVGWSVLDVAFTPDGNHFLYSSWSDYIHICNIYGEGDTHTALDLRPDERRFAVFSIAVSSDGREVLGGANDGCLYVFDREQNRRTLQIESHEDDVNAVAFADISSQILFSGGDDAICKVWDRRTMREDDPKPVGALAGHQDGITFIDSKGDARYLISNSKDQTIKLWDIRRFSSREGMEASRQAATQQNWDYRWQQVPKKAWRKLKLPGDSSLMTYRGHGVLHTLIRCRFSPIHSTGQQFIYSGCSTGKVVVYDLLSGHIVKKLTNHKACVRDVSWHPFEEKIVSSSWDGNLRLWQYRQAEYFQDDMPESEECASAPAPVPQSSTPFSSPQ"},
  "source": "paper PMC6692315",
  "binders": {"B1": {"name": "C. elegans GEN-1-3XFLAG (protein, UniProt Q22418 1-434)", "chain": "MTINGIWEWANHVVRKVPNETMRDKTLSIDGHIWLYESLKGCEAHHQQTPNSYLVTFFTRIQRLLELKIIPIVVFDNINASSSAHESKDQNEFVPRKRRSFGDSPFTNLVDHVYKTNALLTELGIKVIIAPGDGEAQCARLEDLGVTSGCITTDFDYFLFGGKNLYRFDFTAGTSSTACLHDIMHLSLGRMFMEKKVSRPHLISTAILLGCDYFQRGVQNIGIVSVFDILGEFGDDGNEEIDPHVILDRFASYVREEIPARSEDTQRKLRLRRKKYNFPVGFPNCDAVHNAITMYLRPPVSSEIPKIIPRAANFQQVAEIMMKECGWPATRTQKELALSIRRKVHLTTTVAQTRIPDFFAATKSKNFTPIVEPCESLEDYISANNTWMRKRKRSESPQILQHHAKRQVPDRKRSVKIRAFKPYPTDVIELGDSD"}, "B2": {"name": "GFP-WDR-23A (C. elegans WDR-23 isoform A) (protein, UniProt P90794 1-571)", "chain": "MGNWITSTFLRFDLFQRHQPNRFLEYTRVQHSNQSPAYSVRTAAEIVAHQRMKPNHSNDSDTDFSSDDEGCPKMTPHEEQQMFEREQHIAFSGRCHIGDPESCTQLRNEINSRCGPRPSTSNNMEFILNRDLQKRGTSISNPRTVARVLNSHLPNQKRRVDRVATKSFCTQYIQNGTKIVVASQDEKIRFYQRNPDKSKYRSKYMKSDELRVDQCGWSILDTAISLNGDLIAYGTWKDAVFVGKLDFTERQNITWFPIDLNGEPGRDHCAVFCVKFSDSSEQIVCGTSQYSIHVFDVEQRRRIRTIVNAHEDDVNSVCFADLGSNLIYSAGDDGLVKVWDKRAWSDGDVEPVGVFAGHRDGVTHVDSRQDERYLLSNSKDQTIKVWDLRKFSNMSGVEATRACVQSQHWDYRWQPAPPGLCQPVAGDTSVMTLRGHSVLHTLVRANFSPESTGRRYIYTGCARGEVVVYDIMSGTVSRRLKGHTAVVRECDWHPTENEIVSSAWDGVTTVWTWDERQEGVIAPYDHPNISQFGDEDSCDELFQPVKKQCRRQRKTMSSRGHPCSSSSISQN"}, "B3": {"name": "Human 3XFLAG:GEN1 (protein, UniProt Q17RS7 1-908)", "chain": "MGVNDLWQILEPVKQHIPLRNLGGKTIAVDLSLWVCEAQTVKKMMGSVMKPHLRNLFFRISYLTQMDVKLVFVMEGEPPKLKADVISKRNQSRYGSSGKSWSQKTGRSHFKSVLRECLHMLECLGIPWVQAAGEAEAMCAYLNAGGHVDGCLTNDGDTFLYGAQTVYRNFTMNTKDPHVDCYTMSSIKSKLGLDRDALVGLAILLGCDYLPKGVPGVGKEQALKLIQILKGQSLLQRFNRWNETSCNSSPQLLVTKKLAHCSVCSHPGSPKDHERNGCRLCKSDKYCEPHDYEYCCPCEWHRTEHDRQLSEVENNIKKKACCCEGFPFHEVIQEFLLNKDKLVKVIRYQRPDLLLFQRFTLEKMEWPNHYACEKLLVLLTHYDMIERKLGSRNSNQLQPIRIVKTRIRNGVHCFEIEWEKPEHYAMEDKQHGEFALLTIEEESLFEAAYPEIVAVYQKQKLEIKGKKQKRIKPKENNLPEPDEVMSFQSHMTLKPTCEIFHKQNSKLNSGISPDPTLPQESISASLNSLLLPKNTPCLNAQEQFMSSLRPLAIQQIKAVSKSLISESSQPNTSSHNISVIADLHLSTIDWEGTSFSNSPAIQRNTFSHDLKSEVESELSAIPDGFENIPEQLSCESERYTANIKKVLDEDSDGISPEEHLLSGITDLCLQDLPLKERIFTKLSYPQDNLQPDVNLKTLSILSVKESCIANSGSDCTSHLSKDLPGIPLQNESRDSKILKGDQLLQEDYKVNTSVPYSVSNTVVKTCNVRPPNTALDHSRKVDMQTTRKILMKKSVCLDRHSSDEQSAPVFGKAKYTTQRMKHSSQKHNSSHFKESGHNKLSSPKIHIKETEQCVRSYETAENEESCFPDSTKSSLSSLQCHKKENNSGTCLDSPLPLRQRLKLRFQST"}},
  "key": {"[1]": {"molecular_target": "T1, GFP-WDR-23A (C. elegans WDR-23 isoform A) (C. elegans) (UniProt P90794)", "T1 sequence": "B2 chain", "assay": "co-IP; GFP-tagged protein immunoprecipitated with GFP trap magnetic agarose beads (Chromotek) from transfected HEK-293T lysate; 0.5% CHAPS buffer (10 mM Tris/Cl pH 7.5, 150 mM NaCl, 0.5 mM EDTA); Western blot"}, "[2]": {"molecular_target": "T2, C. elegans GEN-1-3XFLAG (C. elegans) (UniProt Q22418)", "T2 sequence": "B1 chain", "assay": "co-IP; reciprocal: FLAG-tagged protein immunoprecipitated with magnetic FLAG-M2 beads (Sigma), 2 hours at 4 degrees Celsius, from transfected HEK-293T lysate; 0.5% CHAPS buffer (10 mM Tris/Cl pH 7.5, 150 mM NaCl, 0.5 mM EDTA); three washes; Western blot"}, "[3]": {"molecular_target": "GFP-WDR23 isoform I (human) (human) (UniProt Q8TEB1)", "assay": "co-IP; GFP-tagged protein immunoprecipitated with GFP trap magnetic agarose beads (Chromotek) from transfected HEK-293T lysate; 0.5% CHAPS buffer (10 mM Tris/Cl pH 7.5, 150 mM NaCl, 0.5 mM EDTA); Western blot"}},
  "note": "No constants are given. Whether binding was seen depends on the method and setting. In cells and extracts the contact can be indirect. Some binding calls cover weakened binding; strength is not graded here. Tags and fused reporters may be left off the sequences shown.",
  "data": [
    {"binder": "B1", "values": [
      {"measurement": "binding", "setting": "[1]", "value": "binds"}
    ]},
    {"binder": "B2", "values": [
      {"measurement": "binding", "setting": "[2]", "value": "binds"}
    ]},
    {"binder": "B3", "values": [
      {"measurement": "binding", "setting": "[3]", "value": "binds"}
    ]}
  ]
}
